Measurements reported in PubChem BioAssay AID493014 (National Center for Advancing Translational Sciences (NCATS), 2011).
The list shows a part of the results. These are further read-outs of the screen, such as a control signal, another cell line or another target. No call is given for them. Most of these compounds were active or inconclusive in the main read-out, so they are no random draw. Potencies come from curve fits of mixed quality, noted in brackets.

Assay: qHTS Assay to Find Inhibitors of Chronic Active B-Cell Receptor Signaling
Conditions: ABC-DLBCL IkBa-CBG/CBR reporter, luminescence ratio (green luciferase fused to IkBa over red control in TMD8 lymphoma cells), 4 h
Method in brief: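 TMD8 human ABC-DLBCL cells with doxycycline-inducible IκBα–green luciferase fusion and unfused red luciferase, in 0.5% FBS medium; compounds up to 46 uM, 4 h at 37C. Green/red luminescence ratio, filter-overlap corrected, fitted to concentration-response curves.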

[1] = measured here: CBR red luminescence, cell number
[2] = measured here: IkBa-CBG green luminescence

SMILES	AC50 [1]	AC50 [2]
O=C(Cn1nnc2c(cnn2-c2ccccc2)c1=O)N1CCN(c2ccccc2F)CC1	22.4 µM [falling, single point]	–
O=C(NC(C(=O)N/N=C/c1cccnc1)c1n[nH]c(=O)c2ccccc12)c1ccccc1 (stereo not drawn)	11.2 µM [falling, partial curve, poor fit]	–
O=C(Nc1nc2ccccc2[nH]1)c1cccc(Br)c1	2.51 µM [falling, full curve, poor fit]	–
O=C(CCS(=O)(=O)c1ccccc1)Nc1nncs1	12.6 µM [falling, partial curve, poor fit]	–
O=C(O)c1sccc1S(=O)(=O)N1CCN(c2ccc(C(F)(F)F)cn2)CC1	35.5 µM [rising, single point]	–
Cc1ccc(NC(=S)Nc2ccccn2)cc1C	0.251 µM [rising, full curve, poor fit]	–
CC(C)CN(CC(C)C)C(=S)Nc1ccc(Cl)cc1	3.98 µM [rising, full curve, poor fit]	–
CCOc1ccccc1Nc1nnc(Cc2ccccc2Cl)c(=O)[nH]1	12.6 µM [falling, single point]	–
O=c1c2ccccc2c(-c2ccc(Cl)cc2)nn1-c1ccccc1	16.4 µM [rising, single point]	–
COc1ccc(C(=O)O/N=C(\N)c2ccccc2Cl)cc1OC	8.91 µM [falling, partial curve]	–
COc1ccc(CNC(=O)c2sc(=S)n(-c3ccccc3)c2N)cc1	35.5 µM [rising, single point]	–
CCCNC(=O)CC1Sc2ccccc2NC1=O (stereo not drawn)	6.51 µM [rising, partial curve, poor fit]	–
Cc1ccccc1OC(C)c1nc(-c2ccccc2)no1 (stereo not drawn)	5.17 µM [rising, partial curve, poor fit]	–
Cc1ccc(C)c2[nH]c(=O)c(CCNC(=O)Cc3cccs3)cc12	5.8 µM [rising, partial curve]	–
CC(C)(NC(=O)NC(CO)c1ccccc1)c1cccc(C(C)(C)NC(=O)NC(CO)c2ccccc2)c1 (stereo not drawn)	2.06 µM [falling, full curve]	2.31 µM [rising, full curve, poor fit]
Cc1ccc(S(=O)(=O)N2CCCCC2)cc1NC(=O)c1ccc(Br)o1	0.231 µM [falling, full curve, poor fit]	–
Cc1c(NC(=O)CSc2nc3ccc(Cl)cc3[nH]2)c(=O)n(-c2ccccc2)n1C	1.46 µM [falling, partial curve, poor fit]	–
COc1ccc(S(=O)(=O)N2CCCC2)c(Cl)c1Cl	3.98 µM [rising, full curve, poor fit]	–
CCOC(=O)C1CCCN(Cc2ccccc2F)C1 (stereo not drawn)	3.16 µM [rising, single point]	–
CC1/C(=C\c2ccc(Cl)cc2)C(=O)C2CC1C2(C)C (stereo not drawn)	15.8 µM [rising, single point]	–
CCn1c(C)nc2cc(-c3nc4n(n3)Cc3ccccc3-4)ccc21	10 µM [falling, partial curve, poor fit]	–

Given in markdown: three of the compounds above

| SMILES | AC50 [1] | AC50 [2] |
| --- | --- | --- |
| O=C(Cn1nnc2c(cnn2-c2ccccc2)c1=O)N1CCN(c2ccccc2F)CC1 | 22.4 µM [falling, single point] | – |
| Cc1ccccc1OC(C)c1nc(-c2ccccc2)no1 (stereo not drawn) | 5.17 µM [rising, partial curve, poor fit] | – |
| CC(C)(NC(=O)NC(CO)c1ccccc1)c1cccc(C(C)(C)NC(=O)NC(CO)c2ccccc2)c1 (stereo not drawn) | 2.06 µM [falling, full curve] | 2.31 µM [rising, full curve, poor fit] |

Further entries follow:

SMILES	AC50 [1]	AC50 [2]
CSc1ccc(-c2nc3cnccn3c2Nc2ccc3c(c2)OCO3)cc1	0.013 µM [falling, full curve, poor fit]	–
Cc1nc2cc(NC(=O)N3c4ccccc4CC3C)ccc2o1 (stereo not drawn)	29.1 µM [falling, single point]	–
Cc1cc(=O)[nH]c(N/N=C/c2c(C)nn(-c3ccccc3)c2Cl)n1	35.5 µM [rising, single point]	–
CN(C)S(=O)(=O)c1cc(C(=O)Nc2ccccc2C(=O)NC2CC2)ccc1Cl	7.31 µM [rising, partial curve]	–
Cc1ccnc(NC(=O)c2sc3cc(Cl)ccc3c2Cl)c1	1.03 µM [falling, partial curve]	–
COc1ccc(OCCOc2ccccc2[N+](=O)[O-])cc1	9.2 µM [rising, partial curve]	–
Cc1ccc(C(=O)Nc2nc3c(s2)CCCC3)o1	14.6 µM [falling, partial curve]	–
CCCCn1c(N)c(N(CCOC)C(=O)CCNC(=O)c2ccc(Br)cc2)c(=O)[nH]c1=O	0.092 µM [rising, full curve, poor fit]	–
COc1ccc(-c2[nH]ncc2/C=N\NC(=O)c2cccs2)cc1OC	35.5 µM [falling, single point]	–
CCCCCOC(=O)c1[nH]c2c(c1C)C(=O)CC(c1ccco1)C2 (stereo not drawn)	0.461 µM [rising, full curve]	0.58 µM [falling, full curve]
COc1ccccc1OCc1ccc(C(=O)Nc2cc(OC)c(OC)c(OC)c2)o1	22.4 µM [falling, single point]	–
COC(=O)c1cccc(NC(=S)NCc2ccc(Cl)cc2)c1	9.2 µM [falling, partial curve]	–
Nc1nonc1-n1nnc(C(=O)N/N=C/c2cccnc2)c1CSc1ccc(Cl)cc1	22.4 µM [falling, single point]	–
C/C(=N\Nc1ccc([N+](=O)[O-])cc1)c1ccc(O)cc1	3.16 µM [rising, partial curve, poor fit]	–
COc1ccc(C2CC(c3ccc(OC)cc3OC(C)=O)=NN2C(=O)c2ccccc2)cc1 (stereo not drawn)	35.5 µM [falling, single point]	–
O=C(Nc1cccc(O)c1)c1ccc(NC(=O)c2cccs2)cc1	35.5 µM [falling, single point]	–
CCOC(=O)c1c(CN(C)C)n(-c2ccccc2)c2cc(Br)c(O)cc12	0.447 µM [rising, full curve, poor fit]	–
Cc1cc(C)c2c3c(sc2n1)C(c1cccc(F)c1)C(C#N)=C(N)O3 (stereo not drawn)	18.4 µM [falling, single point]	–
Cc1ccc(NC(=O)c2ccccc2OCc2ccc([N+](=O)[O-])cc2)nc1	0.316 µM [rising, full curve, poor fit]	–
COc1cc(C2C(C#N)=C(N)OC3=C2C(=O)CC(C)(C)C3)ccc1OC(=O)N1CCOCC1 (stereo not drawn)	29.1 µM [rising, single point]	–
